Values quoted from earlier work in patent US20040054010A1, “Endosulfan formulation and methods of use thereof” (priority 2000, published 2004).

Conditions: 14 days after treatment; Chopra and Mahfouz, 1977; Mukherjee and Gopal, 1994; cited from earlier work

Compound: O=S1OC[C@@H]2[C@H](CO1)[C@@]1(Cl)C(Cl)=C(Cl)[C@]2(Cl)C1(Cl)Cl (stereo partly drawn) [alpha-endosulfan]
- endosulfan sulfate content of treated tobacco plants: 0.5 ppm

Compound: O=S1OC[C@@H]2[C@H](CO1)[C@]1(Cl)C(Cl)=C(Cl)[C@]2(Cl)C1(Cl)Cl (stereo partly drawn) [beta-endosulfan]
- endosulfan sulfate content of treated tobacco plants: 0.1 ppm
